Results reported in article PMC12362812.
Results are given in words; binding and its absence hold for the method and conditions named. In cells and extracts the contact can be indirect. Some entries that bind do so weakly or less than the wild type.

Experiments:
[1] = target: β‐catenin, wild type, in ESCC cells (human) (UniProt P35222); test: co-IP; lysates of transfected ESCC cells, precleared with IgG and protein A/G Sepharose beads; primary antibody overnight at 4 °C, protein A/G Sepharose beads 4 h, washed with IP lysis buffer, Western blot; for β‐catenin and NUP93 with ectopic LIMK1 or CDK5 (wild type or kinase-dead)
[2] = target: T1, LIMK1‐D460A, catalytically inactive mutant, overexpressed in ESCC cells (human) (UniProt P53667); test: as above
T1 sequence: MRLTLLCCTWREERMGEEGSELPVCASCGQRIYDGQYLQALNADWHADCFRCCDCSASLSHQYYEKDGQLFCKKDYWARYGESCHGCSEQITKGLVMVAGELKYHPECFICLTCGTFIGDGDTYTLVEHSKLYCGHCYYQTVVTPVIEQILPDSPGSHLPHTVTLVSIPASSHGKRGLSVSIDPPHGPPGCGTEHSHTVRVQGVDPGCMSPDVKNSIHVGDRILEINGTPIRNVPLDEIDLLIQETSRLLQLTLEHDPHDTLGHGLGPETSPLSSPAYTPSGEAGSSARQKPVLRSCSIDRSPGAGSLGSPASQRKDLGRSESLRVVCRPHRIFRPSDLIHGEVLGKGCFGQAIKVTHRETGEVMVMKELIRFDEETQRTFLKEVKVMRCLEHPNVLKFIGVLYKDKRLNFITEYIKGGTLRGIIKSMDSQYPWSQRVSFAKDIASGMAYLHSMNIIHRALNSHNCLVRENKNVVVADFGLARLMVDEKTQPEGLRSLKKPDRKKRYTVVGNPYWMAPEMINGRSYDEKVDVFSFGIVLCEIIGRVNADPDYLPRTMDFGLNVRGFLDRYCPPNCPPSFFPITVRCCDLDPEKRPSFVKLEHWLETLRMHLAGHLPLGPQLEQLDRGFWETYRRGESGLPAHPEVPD

| Substance | binding [1] | binding [2] |
| --- | --- | --- |
| Cyclin‐dependent kinase 5 (CDK5), wild type, overexpressed in ESCC cells (from UniProt Q00535 1-292) (enzyme) | binds |  |
| β‐catenin, wild type, in ESCC cells (from UniProt P35222 1-781) |  | binds |
